The test system of the experiment is alpha 2 receptor. The note with it: applied IP.

Regarding `Brc1c(NC2=NCCN2)ccc2nccnc12` [Brimonidine, brimonidine], the “concentration at which therapeutic effects begin” value came out at 10 micrograms/kg.

As for `Clc1cccc(Cl)c1N=C1NCCN1` [Clonidine, clonidine], the “concentration at which therapeutic effects begin” value is recorded as “about 100 micrograms/kg”.

These data come from patent publication US20040116436A1, “Treatment of dementia and parkinson's disease” (priority 2002, published 2004).
